Reference: paper PMC5209732
Results are given in words; binding and its absence hold for the method and conditions named. In cells and extracts the contact can be indirect. Some results given as binding are weak or reduced against the parent protein; the word gives no strength. Sequences can lack the tags named with a protein.

Protein sequences, listed by entry. Tags and fused reporters are not part of them.
UniProt P62136: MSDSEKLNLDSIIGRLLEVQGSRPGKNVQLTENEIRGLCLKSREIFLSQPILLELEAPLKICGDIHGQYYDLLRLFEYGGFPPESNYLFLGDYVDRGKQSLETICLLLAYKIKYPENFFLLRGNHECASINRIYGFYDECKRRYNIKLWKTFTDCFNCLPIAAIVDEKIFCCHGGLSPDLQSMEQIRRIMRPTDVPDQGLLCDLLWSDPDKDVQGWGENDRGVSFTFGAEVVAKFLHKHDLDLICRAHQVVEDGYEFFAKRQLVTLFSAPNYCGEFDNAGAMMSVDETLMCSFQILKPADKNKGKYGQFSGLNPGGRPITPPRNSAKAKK

T1: Myc-tagged PDCD5 (programmed cell death 5) (UniProt O14737)
T1 sequence: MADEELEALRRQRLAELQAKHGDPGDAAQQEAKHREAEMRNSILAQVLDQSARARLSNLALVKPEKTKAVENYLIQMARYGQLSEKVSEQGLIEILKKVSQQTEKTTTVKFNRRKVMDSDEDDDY

T2: PDCD5 of the GST pull-down (UniProt O14737)
T2 sequence: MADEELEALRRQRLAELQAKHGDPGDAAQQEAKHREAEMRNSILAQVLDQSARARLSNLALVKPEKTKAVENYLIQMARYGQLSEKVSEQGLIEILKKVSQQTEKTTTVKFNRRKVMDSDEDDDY

T3: Flag-tagged PPEF-1 (protein phosphatase with EF-hand domain 1) (UniProt O14829)
T3 sequence: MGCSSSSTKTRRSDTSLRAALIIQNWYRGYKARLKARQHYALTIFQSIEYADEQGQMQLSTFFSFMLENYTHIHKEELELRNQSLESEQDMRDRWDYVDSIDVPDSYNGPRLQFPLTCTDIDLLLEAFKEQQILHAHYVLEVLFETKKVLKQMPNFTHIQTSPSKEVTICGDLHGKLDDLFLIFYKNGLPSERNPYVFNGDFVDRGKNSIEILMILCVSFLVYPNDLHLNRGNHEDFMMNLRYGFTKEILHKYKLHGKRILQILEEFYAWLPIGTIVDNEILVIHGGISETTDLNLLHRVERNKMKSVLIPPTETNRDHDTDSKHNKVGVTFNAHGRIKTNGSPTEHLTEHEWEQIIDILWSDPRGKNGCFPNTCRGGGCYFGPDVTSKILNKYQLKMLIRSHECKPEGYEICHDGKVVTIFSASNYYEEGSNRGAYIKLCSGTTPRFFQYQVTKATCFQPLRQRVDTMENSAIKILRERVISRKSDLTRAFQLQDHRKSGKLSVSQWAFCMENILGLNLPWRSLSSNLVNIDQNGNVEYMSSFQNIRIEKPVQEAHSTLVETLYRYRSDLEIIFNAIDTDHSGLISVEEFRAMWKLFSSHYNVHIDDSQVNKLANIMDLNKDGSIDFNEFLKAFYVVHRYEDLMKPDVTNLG


Legend:
[1] = target: T1, Myc-tagged PDCD5 (programmed cell death 5); assay: co-IP; Myc-PDCD5 and Flag-tagged phosphatases co-transfected into HCT116 (p53+/+); whole-cell lysates (50 mM Tris-Cl pH 7.5, 150 mM NaCl, 1% NP40) immunoprecipitated with anti-Myc and protein A/G agarose overnight at 4 °C, immunoblotted
[2] = target: T2, PDCD5 of the GST pull-down; assay: pull-down; GST pull-down with Myc-tagged PPEF-1 constructs; bound proteins eluted and analysed by autoradiography; only the target purified
[3] = target: T3, Flag-tagged PPEF-1 (protein phosphatase with EF-hand domain 1); assay: co-IP; Myc-PDCD5 constructs and Flag-PPEF-1 co-transfected into HCT116 (p53+/+); lysates immunoprecipitated with Flag antibodies, immunoblotted

Row | Molecule | binding [1] | also measured
1 | Flag-tagged PPP1CA (from UniProt P62136 1-330) (enzyme) | binds | –
2 | Flag-tagged PPEF-1 (protein phosphatase with EF-hand domain 1) (enzyme, UniProt O14829 1-653) MGCSSSSTKTRRSDTSLRAALIIQNWYRGYKARLKARQHYALTIFQSIEYADEQGQMQLSTFFSFMLENYTHIHKEELELRNQSLESEQDMRDRWDYVDSIDVPDSYNGPRLQFPLTCTDIDLLLEAFKEQQILHAHYVLEVLFETKKVLKQMPNFTHIQTSPSKEVTICGDLHGKLDDLFLIFYKNGLPSERNPYVFNGDFVDRGKNSIEILMILCVSFLVYPNDLHLNRGNHEDFMMNLRYGFTKEILHKYKLHGKRILQILEEFYAWLPIGTIVDNEILVIHGGISETTDLNLLHRVERNKMKSVLIPPTETNRDHDTDSKHNKVGVTFNAHGRIKTNGSPTEHLTEHEWEQIIDILWSDPRGKNGCFPNTCRGGGCYFGPDVTSKILNKYQLKMLIRSHECKPEGYEICHDGKVVTIFSASNYYEEGSNRGAYIKLCSGTTPRFFQYQVTKATCFQPLRQRVDTMENSAIKILRERVISRKSDLTRAFQLQDHRKSGKLSVSQWAFCMENILGLNLPWRSLSSNLVNIDQNGNVEYMSSFQNIRIEKPVQEAHSTLVETLYRYRSDLEIIFNAIDTDHSGLISVEEFRAMWKLFSSHYNVHIDDSQVNKLANIMDLNKDGSIDFNEFLKAFYVVHRYEDLMKPDVTNLG | binds | –
3 | Flag-tagged PPP6C (enzyme, UniProt O00743 1-305) MAPLDLDKYVEIARLCKYLPENDLKRLCDYVCDLLLEESNVQPVSTPVTVCGDIHGQFYDLCELFRTGGQVPDTNYIFMGDFVDRGYYSLETFTYLLALKAKWPDRITLLRGNHESRQITQVYGFYDECQTKYGNANAWRYCTKVFDMLTVAALIDEQILCVHGGLSPDIKTLDQIRTIERNQEIPHKGAFCDLVWSDPEDVDTWAISPRGAGWLFGAKVTNEFVHINNLKLICRAHQLVHEGYKFMFDEKLVTVWSAPNYCYRCGNIASIMVFKDVNTREPKLFRAVPDSERVIPPRTTTPYFL | binds | –
4 | Flag-tagged PPM1K (enzyme, UniProt Q8N3J5 30-372) DDRRVTPTCHSSTSEPRCSRFDPDGSGSPATWDNFGIWDNRIDEPILLPPSIKYGKPIPKISLENVGCASQIGKRKENEDRFDFAQLTDEVLYFAVYDGHGGPAAADFCHTHMEKCIMDLLPKEKNLETLLTLAFLEIDKAFSSHARLSADATLLTSGTTATVALLRDGIELVVASVGDSRAILCRKGKPMKLTIDHTPERKDEKERIKKCGGFVAWNSLGQPHVNGRLAMTRSIGDLDLKTSGVIAEPETKRIKLHHADDSFLVLTTDGINFMVNSQEICDFVNQCHDPNEAAHAVTEQAIQYGTEDNSTAVVVPFGAWGKYKNSEINFSFSRSFASSGRWA | binds | –
5 | Myc-tagged PPEF-1 of the GST pull-down (enzyme, UniProt O14829 1-653) MGCSSSSTKTRRSDTSLRAALIIQNWYRGYKARLKARQHYALTIFQSIEYADEQGQMQLSTFFSFMLENYTHIHKEELELRNQSLESEQDMRDRWDYVDSIDVPDSYNGPRLQFPLTCTDIDLLLEAFKEQQILHAHYVLEVLFETKKVLKQMPNFTHIQTSPSKEVTICGDLHGKLDDLFLIFYKNGLPSERNPYVFNGDFVDRGKNSIEILMILCVSFLVYPNDLHLNRGNHEDFMMNLRYGFTKEILHKYKLHGKRILQILEEFYAWLPIGTIVDNEILVIHGGISETTDLNLLHRVERNKMKSVLIPPTETNRDHDTDSKHNKVGVTFNAHGRIKTNGSPTEHLTEHEWEQIIDILWSDPRGKNGCFPNTCRGGGCYFGPDVTSKILNKYQLKMLIRSHECKPEGYEICHDGKVVTIFSASNYYEEGSNRGAYIKLCSGTTPRFFQYQVTKATCFQPLRQRVDTMENSAIKILRERVISRKSDLTRAFQLQDHRKSGKLSVSQWAFCMENILGLNLPWRSLSSNLVNIDQNGNVEYMSSFQNIRIEKPVQEAHSTLVETLYRYRSDLEIIFNAIDTDHSGLISVEEFRAMWKLFSSHYNVHIDDSQVNKLANIMDLNKDGSIDFNEFLKAFYVVHRYEDLMKPDVTNLG | – | binding [2]: binds
6 | MADEELEALRRQRLAELQAKHGDPGDAAQQ (domain or fragment, UniProt O14737 1-30) [Myc-tagged PDCD5 N-terminal domain (residues 1-30)] | – | binding [3]: binds
